Experimental data reported in the supplement of paper PMC3334620.
In all, about 33,000 sequences were measured (“E-score (-0.5 to 0.5)”: median about -0.0034, highest 2% from about 0.25 on). Some of the results follow.

biological target: T1, Yap3 (UniProt P38749); experiment: PBM E-score (8-mer binding enrichment) (E-score (-0.5 to 0.5)); higher = stronger / more preferred TF binding; settings: protein concentration: 100 nM; construct: GST-full length
T1 sequence: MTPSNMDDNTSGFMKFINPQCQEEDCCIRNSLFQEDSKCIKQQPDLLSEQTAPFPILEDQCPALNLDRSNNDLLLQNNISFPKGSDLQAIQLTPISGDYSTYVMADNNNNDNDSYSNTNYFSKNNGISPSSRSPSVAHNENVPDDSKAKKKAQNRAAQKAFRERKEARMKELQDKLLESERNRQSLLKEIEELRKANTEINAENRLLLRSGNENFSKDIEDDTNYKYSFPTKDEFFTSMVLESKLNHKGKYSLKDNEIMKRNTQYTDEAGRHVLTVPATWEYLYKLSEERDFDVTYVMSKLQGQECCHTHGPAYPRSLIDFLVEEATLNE
Summary of the method: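 Yeast transcription factors, full-length or as DNA-binding domains, were expressed with a GST tag using PURExpress in vitro transcription/translation. At about 100-200 nM they were applied to universal all-10-mer Agilent arrays, double-stranded by primer extension on fresh or once-stripped slides. Fluorescent anti-GST detected bound protein, and masliner normalised the scans. E-scores for ungapped eight-base words, pooled with reverse complements, came from the Universal PBM Analysis Suite.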

Sequence	PBM E-score
GATCGTGA	-0.0036
AGATATGA	0.219
CAGATACG	0.117
AAACGCCT	-0.153
AATGTAAC	0.122
CCCCGCAC	-0.151
CCAATCCG	0.033
AGGGTCAC	-0.222
GAGGGTTA	-0.126
TAAATGTA	0.173
GGAGAGGA	-0.169
AGCAAATC	0.141
GTCTGAGA	-0.16
CATCTCAA	0.108
GACTTCCA	-0.0885
CTCGAAGA	-0.198
ATCTAGAC	-0.165
TGACCGCA	-0.0776
CAGAATAC	0.173
AAATCTCA	0.142
CTGCGAAC	-0.138
GTTAGGTA	0.194
ATATCGTA	0.128
AAGGACAG	0.00055
ACAGGAGG	-0.217

Sequence	PBM E-score
GCGACGGA	0.0769
ATAGAGCC	-0.12
AATGGAGG	-0.119
AGATATAC	0.0965
GTCTTCAC	-0.11
CTATCAAG	0.067
GGGGCCTA	-0.368
ACAACTAC	0.0726
GTAGTAAA	0.0955
ATCCGCAG	0.147
CGCTATAG	-0.0258
GCACGTAA	0.0393
ACATAATG	0.211
ATAATTAC	0.333
ACGATAAT	0.184
GTCTTCCA	-0.108
ATGTCCGG	-0.133
AGAAACGC	-0.12
AAGGATAA	0.0694
ACCGGCTA	-0.0839
GCTTGACC	-0.0702
GGAAGCGA	-0.0648
AAAGGAGA	-0.055
CCAAGGTA	-0.132
GGCAGGTA	-0.158

Sequence	PBM E-score
CCATGCCG	0.0611
ATATTAGA	0.175
GTGTTAAA	0.0872
AAAGACTC	-0.0985
AAGGATCT	-0.109
CCGGAACG	0.0101
AGCAGGAA	0.059
ATAGACTG	0.0697
CGAAACTC	-0.112
ATCCGAAT	0.238
CTGTGATA	-0.106
TCGAACCA	-0.00191
CGTCGTCA	-0.0331
GAATCATC	-0.108
CATCTGAA	0.054
AGTCAGGC	0.133
GCAAGAGA	-0.136
ACCGATTC	-0.128
GGCGGTTA	-0.0959
GCTCGTAC	0.065
AGCATTAA	0.138
CTGTGGTC	-0.11
CTATCAGA	-0.231
AAACCCCA	-0.029
ACGCGCGC	0.181

Sequence	PBM E-score
CGATATTC	0.0953
AATACATG	0.151
AGGCTGGG	-0.278
ACCTCTAA	-0.0316
TGTATTAA	0.126
ACGACCAG	0.0749
CGCTGTAA	0.1
ACGAACAT	0.149
ACACATTG	0.104
CCGGGACG	-0.285
CATCTCCA	0.0148
TTATACAA	0.198
ATTGACTG	0.0853
ATTTTCGG	0.109
GGCCTCCC	-0.234
ACTCCCAT	0.0179
TGCTTCCA	-0.094
AGGGCCAG	-0.107
ACTGCAGT	0.0567
AGAATTCA	-0.00765
CTTCTGGA	-0.0873
ATCAGCCG	-0.181
ACATCCGC	0.0197
TGGGAGAA	-0.174
ACAGGAGA	0.0418

Sequence	PBM E-score
CATCCGAC	-0.0371
ACAGGATG	0.152
ACTCCCAG	0.0568
GACATGCC	-0.129
AGAAATCT	0.147
GTCATCTA	0.00466
ATAAGGAA	0.0433
GGGATTAA	0.0796
CAATAGCG	-0.00331
CTATTAAC	0.188
AGCCCTAC	0.0007
GTGTTGCA	0.0357
ATCAACAG	0.132
AGATAGAA	0.111
ACACTATA	0.138
CATGAGGC	-0.111
GTCTATAA	0.129
AGCTCCAT	-0.13
GGTATATA	0.239
CTTATCGA	0.174
TAAACCCA	0.114
CTCCGTGC	-0.237
ACAGGGAC	-0.168
GAGTCAGC	-0.0237
CCTAGGAC	-0.0486

Retrieved one by one from the entries so far:
Sequence	PBM E-score
GTGTTGCA	0.0357
GGGGCCTA	-0.368
GACATGCC	-0.129
GTCATCTA	0.00466
TAAATGTA	0.173
CGATATTC	0.0953
CATCTCAA	0.108

Reformatted as labelled records: part of the list above
CCATGCCG
  PBM E-score: 0.0611
AGGCTGGG
  PBM E-score: -0.278

Remaining list, next part

Sequence	PBM E-score
CCCCTCAC	-0.203
GCGATGCC	-0.287
GTGAGCAA	-0.0315
AAGAGCGT	0.108
GCTACGCA	-0.198
ATTCACAC	0.135
GCTTCTGA	0.054
GGAACTTA	0.111
AGACATGA	0.0384
AGCATATG	-0.0618
ATTGGGGC	-0.0386
AAGGCCCG	-0.298
AAGATAGG	-0.0546
ACAAATCG	0.0463
CCGCAAGC	-0.195
GTCGCGAC	0.324
AACCTATG	-0.0273
AGCTTAAA	-0.0384
CGGTAAGC	-0.0446
GAAATTCA	0.116
ACTGATTC	-0.0161
CACGTGCA	0.00791
CTTAGCAA	-0.0494
AACGTGCC	-0.0468
GGCACTGA	-0.0265

Sequence	PBM E-score
AGCTTCTG	-0.178
CTAACTTC	0.0236
AGAACATC	0.11
AATGTGCG	0.15
ACAAAGGC	-0.0378
ATGAGGGC	-0.0291
GGACCTCA	-0.0617
GCTTCAAA	-0.0578
AACAACAT	0.191
GCGCTTAC	-0.0325
CACCCGCA	-0.187
AGATTTTG	0.0721
CACAGAGC	-0.163
GACATAAC	0.22
GGGCTACA	-0.152
TGCGGACA	0.175
ACTCAAGT	-0.0333
AGTGTAGG	0.00332
CAACGCCC	-0.162
TAAACAAA	0.195
CGGCTTGA	-0.0693
AAATTCGC	0.129
